Source: PubChem BioAssay AID1347076 (National Center for Advancing Translational Sciences (NCATS), 2019)
Screen size: about 400,000 compounds; about 13,000 (3.2%) were called active. Inconclusive means that the source gave no clear call. Such entries were picked first, then a sample of the others. Calls come from the whole dose curve; as a rule, active = well fitted cell-killing curve with a large enough effect; inconclusive = small, poorly fitted or top-dose-only effect, or effect the other way; inactive = flat fitted curve, though single readings scatter. Where the call is inconclusive, the potency comes from a doubtful curve fit.

test: qHTS assay for MDR1-selective chemotherapeutics: Primary screen using the drug-selected MDR subline cells KB-V1; conditions: KB-V1 MDR cells viability, CellTiter-Glo, 72 h; series mostly up to 46.1 µM; note: nearly all actives have a fitted effect of over 60% in size
Method in brief: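 Potencies derive from concentration-effect curves fitted to normalized luminescence (CellTiter-Glo) of KB-V1 cells treated for 72 h at 37 degrees C in phenol-red-free DMEM containing 10% FBS.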
Potency is the fitted concentration of half-maximal effect.

Row | SMILES | Potency
1 | CCN(CC)S(=O)(=O)c1ccc(NC(=O)C2c3ccccc3Oc3ccccc32)cc1 | active: 18.4 µM
2 | O=C(NC1CCCCC1)c1cc2nc(-c3ccco3)cc(C(F)(F)F)n2n1 | inconclusive: 2.31 µM [cytotoxic, full curve, poor fit]
3 | COc1ccc(CCNC(=O)c2c(C)nn(CC(C)C)c2Cl)cc1 | inconclusive: 16.4 µM [cytotoxic, partial curve]
4 | CNC(=O)C1CCCN1S(=O)(=O)c1ccc(OC)cc1 (stereo not given) | inconclusive: 23.1 µM [rising, partial curve, poor fit]
5 | COC(=O)c1cccc(NC(=O)Nc2ccccc2OC)c1 | inactive
6 | CCCCCNC(=O)C(c1ccnc2ccccc12)n1c(=O)c(-c2cc3ccccc3[nH]2)nc2ccccc21 (stereo not given) | inconclusive: 23.1 µM [cytotoxic, partial curve]
7 | Nc1nc(F)nc2c1ncn2[C@@H]1O[C@H](CO)[C@@H](O)[C@@H]1O | active: 0.651 µM
8 | CCC(C(=O)OCC(=O)Nc1ccccc1-c1ccccc1)c1ccccc1 (stereo not given) | inactive
9 | Cc1cc(N2C(=O)C(O)=C(C(=O)c3ccc(C)o3)C2c2ccc([N+](=O)[O-])cc2)no1 (stereo not given) | inactive
10 | Cc1ccccc1-c1nc(CN2CCC(C(=O)NCc3cccnc3)CC2)c(C)o1 | inconclusive: 14.6 µM [cytotoxic, partial curve]
11 | COc1cccc(NC(=O)c2c(N3CCCC3=O)c3cc(C)ccc3n2C)c1 | inconclusive: 23.1 µM [cytotoxic, single point]
12 | CCC1Sc2ccccc2N(CC(=O)NC2CCCCC2)C1=O (stereo not given) | inactive
13 | Brc1ccc2c(c1)-c1ccccc1C1=NCCN12 | active: 10.3 µM
14 | CCOc1ccc(S(=O)(=O)n2ccnc2)c2ccccc12 | inconclusive: 29.1 µM [rising, single point]
15 | O=C(CSC1=Nc2ccccc2N=C(c2ccc(F)cc2)C1)Nc1ccc(Cl)cc1 | inactive
16 | Cc1ccc2nc(N3CCOCC3)c(C=O)c(=O)n2c1 | inconclusive: 29.1 µM [rising, single point]
17 | CCOP(=O)(OCC)C(NC(=O)Nc1ccc(C)c(Cl)c1)c1ccccc1 (stereo not given) | inconclusive: 20.6 µM [cytotoxic, single point]
18 | Cc1noc(N)c1C1(O)C(=O)Nc2c(Cl)cc(Cl)cc21 (stereo not given) | inconclusive: 29.1 µM [rising, single point]
19 | COc1ccc(C(=O)/C=C/c2ccccc2OC)c(OC(=O)c2ccc([N+](=O)[O-])cc2)c1 | inconclusive: 23.1 µM [cytotoxic, single point]
20 | O=C(Nc1ccc(N2CCOCC2)c(F)c1)c1cccs1 | inconclusive: 0.92 µM [rising, partial curve, poor fit]

Looked up above:
Value for `Brc1ccc2c(c1)-c1ccccc1C1=NCCN12` under Potency: active: 10.3 µM
Value for `Cc1cc(N2C(=O)C(O)=C(C(=O)c3ccc(C)o3)C2c2ccc([N+](=O)[O-])cc2)no1` (stereo not given) under Potency: inactive
